Results are given in words; binding and its absence hold for the method and conditions named. Some entries that bind do so weakly or less than the wild type.
How the values were obtained:
Assay in all cases: co-expression and co-purification (anti-FLAG M2, anti-HA, Superose 6); subunits co-expressed in insect cells; purified through M2 beads (f:MED14 derivative), HA beads (HA:MED7) and Superose 6; SDS-PAGE
[1] = molecular target: f:MED14-NTD (1-760 aa), FLAG-tagged N-terminal half of MED14 (human) (UniProt O60244)
[2] = molecular target: f:MED14-CTD (754-1455 aa), FLAG-tagged C-terminal half of MED14 (human) (UniProt O60244)
[3] = molecular target: f:MED14 (1-1455 aa), full-length FLAG-tagged MED14 (human) (UniProt O60244)

Protein sequences, listed by entry. Tags and fused reporters are not part of them. Lines headed by an entry give the natural chain unless they say otherwise; changes in a name come on top. Chains listed by the source or under a name are the forms on record and can include a tag or linker. Residues count along the entry.
UniProt O60244: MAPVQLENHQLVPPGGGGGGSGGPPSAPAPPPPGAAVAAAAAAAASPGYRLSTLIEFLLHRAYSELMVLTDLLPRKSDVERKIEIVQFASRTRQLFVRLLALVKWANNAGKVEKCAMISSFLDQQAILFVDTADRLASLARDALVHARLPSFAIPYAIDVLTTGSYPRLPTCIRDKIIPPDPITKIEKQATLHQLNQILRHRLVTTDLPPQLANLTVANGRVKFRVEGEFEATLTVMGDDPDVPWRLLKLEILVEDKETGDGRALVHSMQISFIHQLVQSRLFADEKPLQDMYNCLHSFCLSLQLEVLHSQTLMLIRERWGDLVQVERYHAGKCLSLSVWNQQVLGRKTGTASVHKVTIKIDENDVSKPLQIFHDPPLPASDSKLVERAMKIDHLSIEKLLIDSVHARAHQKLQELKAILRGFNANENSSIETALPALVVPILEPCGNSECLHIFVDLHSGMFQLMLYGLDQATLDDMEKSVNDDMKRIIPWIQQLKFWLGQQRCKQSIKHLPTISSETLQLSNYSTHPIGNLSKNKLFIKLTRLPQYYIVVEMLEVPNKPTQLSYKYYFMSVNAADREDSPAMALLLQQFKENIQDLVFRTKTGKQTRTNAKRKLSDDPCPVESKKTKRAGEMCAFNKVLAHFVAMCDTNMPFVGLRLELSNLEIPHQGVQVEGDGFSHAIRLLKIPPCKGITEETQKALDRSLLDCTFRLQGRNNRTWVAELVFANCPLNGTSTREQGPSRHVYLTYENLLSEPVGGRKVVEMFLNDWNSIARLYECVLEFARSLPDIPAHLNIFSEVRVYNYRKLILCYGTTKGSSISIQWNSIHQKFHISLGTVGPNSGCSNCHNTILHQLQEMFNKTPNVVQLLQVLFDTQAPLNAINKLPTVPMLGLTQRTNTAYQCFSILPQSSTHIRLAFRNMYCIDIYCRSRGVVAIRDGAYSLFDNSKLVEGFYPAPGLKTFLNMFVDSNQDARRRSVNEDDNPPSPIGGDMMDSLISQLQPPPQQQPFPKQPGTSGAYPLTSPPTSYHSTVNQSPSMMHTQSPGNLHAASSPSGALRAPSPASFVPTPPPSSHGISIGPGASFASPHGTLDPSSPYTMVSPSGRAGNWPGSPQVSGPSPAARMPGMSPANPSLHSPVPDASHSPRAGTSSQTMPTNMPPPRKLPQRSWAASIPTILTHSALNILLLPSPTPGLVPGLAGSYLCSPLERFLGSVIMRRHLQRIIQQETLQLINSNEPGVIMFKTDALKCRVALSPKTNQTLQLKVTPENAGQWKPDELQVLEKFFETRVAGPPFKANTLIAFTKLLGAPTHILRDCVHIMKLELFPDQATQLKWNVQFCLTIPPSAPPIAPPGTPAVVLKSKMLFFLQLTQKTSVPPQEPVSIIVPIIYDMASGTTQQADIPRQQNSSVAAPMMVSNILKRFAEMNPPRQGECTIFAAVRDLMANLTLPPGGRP
f:MED14-NTD (1-760 aa), FLAG-tagged N-terminal half of MED14: residues 1-760 of O60244
f:MED14-CTD (754-1455 aa), FLAG-tagged C-terminal half of MED14: residues 754-1454 of O60244
UniProt Q9NVC6: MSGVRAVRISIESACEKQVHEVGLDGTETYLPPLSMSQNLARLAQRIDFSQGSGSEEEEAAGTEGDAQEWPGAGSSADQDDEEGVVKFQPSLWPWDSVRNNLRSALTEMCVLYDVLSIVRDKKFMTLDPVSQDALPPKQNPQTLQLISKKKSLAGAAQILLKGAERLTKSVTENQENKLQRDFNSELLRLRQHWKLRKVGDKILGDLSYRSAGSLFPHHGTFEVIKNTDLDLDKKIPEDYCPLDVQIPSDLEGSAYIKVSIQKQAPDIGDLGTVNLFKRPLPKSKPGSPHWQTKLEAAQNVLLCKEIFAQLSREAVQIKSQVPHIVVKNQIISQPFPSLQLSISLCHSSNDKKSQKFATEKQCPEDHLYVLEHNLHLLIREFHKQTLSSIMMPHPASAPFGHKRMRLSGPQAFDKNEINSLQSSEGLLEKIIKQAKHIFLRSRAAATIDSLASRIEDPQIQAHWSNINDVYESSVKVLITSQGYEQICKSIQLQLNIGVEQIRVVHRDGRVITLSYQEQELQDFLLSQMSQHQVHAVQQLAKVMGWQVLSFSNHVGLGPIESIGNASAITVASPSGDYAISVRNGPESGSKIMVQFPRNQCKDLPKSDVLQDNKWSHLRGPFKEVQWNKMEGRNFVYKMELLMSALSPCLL

Measured: binding

H+M+MED26, head + middle modules with MED26 (from UniProt Q9NVC6 1-651; Q96G25 1-268; A0JLT2 1-244; O75586 1-246; Q15528 1-200; Q9P086 1-117; Q96HR3 1-178; Q9H944 1-212; Q9BUE0 1-208; O43513 1-233; Q9Y3C7 1-131; Q9BTT4 1-135; Q9NPJ6 1-270; Q13503 1-144; O95402 1-600) (complex)
binds: all assays above

— paper PMC12719649
